In publication PMC3364992:
These are yes or no findings as the source states them, for the method shown. In cells and extracts the contact can be indirect. Where a sequence is shown, tags or fusion partners need not be part of it.

By UniProt entry, the sequences of proteins in these tests, tags left out. Residues count along the entry.
UniProt Q04206: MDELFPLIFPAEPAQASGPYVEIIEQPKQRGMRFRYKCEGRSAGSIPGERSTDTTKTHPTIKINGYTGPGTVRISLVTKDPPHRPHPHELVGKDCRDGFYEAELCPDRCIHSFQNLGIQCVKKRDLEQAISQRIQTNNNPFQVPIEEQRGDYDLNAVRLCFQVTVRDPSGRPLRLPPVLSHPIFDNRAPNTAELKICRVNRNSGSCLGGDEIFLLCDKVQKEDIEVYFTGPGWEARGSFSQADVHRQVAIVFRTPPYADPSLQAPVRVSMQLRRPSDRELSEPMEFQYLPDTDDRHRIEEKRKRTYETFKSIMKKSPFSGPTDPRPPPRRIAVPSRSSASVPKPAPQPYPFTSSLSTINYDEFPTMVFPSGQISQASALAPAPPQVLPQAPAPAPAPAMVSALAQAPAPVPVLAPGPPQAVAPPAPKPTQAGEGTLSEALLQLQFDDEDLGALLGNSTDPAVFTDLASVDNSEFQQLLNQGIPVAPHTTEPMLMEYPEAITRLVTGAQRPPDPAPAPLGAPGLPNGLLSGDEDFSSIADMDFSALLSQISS
UniProt P19838, residues 1-433: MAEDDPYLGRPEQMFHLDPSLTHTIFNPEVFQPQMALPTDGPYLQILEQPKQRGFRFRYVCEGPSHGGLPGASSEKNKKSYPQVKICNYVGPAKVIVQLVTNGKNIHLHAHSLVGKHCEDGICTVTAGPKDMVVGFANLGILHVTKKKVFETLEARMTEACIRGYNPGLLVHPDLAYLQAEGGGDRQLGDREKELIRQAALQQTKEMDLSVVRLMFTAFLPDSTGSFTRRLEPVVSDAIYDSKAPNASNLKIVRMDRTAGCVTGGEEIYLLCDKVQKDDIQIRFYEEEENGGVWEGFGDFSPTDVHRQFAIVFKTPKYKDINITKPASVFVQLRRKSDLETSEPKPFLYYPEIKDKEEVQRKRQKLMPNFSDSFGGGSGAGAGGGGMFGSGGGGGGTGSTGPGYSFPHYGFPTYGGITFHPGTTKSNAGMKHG

Assays:
[1] = molecular target: T1, GST-14-3-3η (UniProt Q04917); experiment: pull-down; purified GST fusion proteins incubated with cell extracts from different breast cancer cell lines for 45 min at 4°C; western blot; only the target purified
T1 sequence: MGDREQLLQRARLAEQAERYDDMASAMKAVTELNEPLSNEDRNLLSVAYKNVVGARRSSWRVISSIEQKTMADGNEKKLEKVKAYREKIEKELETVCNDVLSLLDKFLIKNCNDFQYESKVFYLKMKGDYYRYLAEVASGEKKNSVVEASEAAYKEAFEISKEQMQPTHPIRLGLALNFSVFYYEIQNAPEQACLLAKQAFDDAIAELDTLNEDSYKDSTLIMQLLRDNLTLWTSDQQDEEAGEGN

[2] = molecular target: T1, GST-14-3-3η; experiment: pull-down; purified GST fusion proteins incubated with lysates of TNFα-treated MCF10A cells for 45 min at 4°C; precipitates washed and analysed by western blot; only the target purified

## p65-NF-κB (from UniProt Q04206 1-551)
[1]
  binding: no binding
[2]
  binding: no binding

## p50 NF-κB (from UniProt P19838 1-433)
[1]
  binding: no binding
[2]
  binding: no binding
